Here are results for 1 substance from publication PMC10664548.

Results are given in words; binding and its absence hold for the method and conditions named. Some binding calls cover weakened binding; strength is not graded here.

Assay [1] addresses LI1157 (putative class II chaperone of translocon proteins), yeast two-hybrid fusion AD-HA-LI1157 (Lawsonia intracellularis) (UniProt Q1MP66). Kind of assay: two-hybrid; S. cerevisiae Y2H Gold co-transformed with pGADT7 (AD) and pGBKT7 (BD) plasmids; serial dilution patch tests on selective medium (Leu-, Trp-; growth control) and low-stringency medium (Leu-, Trp-, His-).
Assay [2] has as its target LI1159 (putative T3SS minor translocon protein), yeast two-hybrid fusions AD-HA-LI1159 and BD-c-Myc-LI1159 (Lawsonia intracellularis) (UniProt Q1MP64). The assay is described as above.

Take “LI1159 (putative T3SS minor translocon protein), yeast two-hybrid fusions AD-HA-LI1159 and BD-c-Myc-LI1159 (from UniProt Q1MP64 1-265)”: the binding entry in assay [1] and in assay [2] was “binds” throughout.
